According to publication PMC7170535:
No constants are given. Whether binding was seen depends on the method and setting. For some assays here: Binding calls can cover weak binding; strength is not graded here.

Experiments:
[1] = target: T1, recombinant inter-α-inhibitor heavy chain 1 (rHC1), wild type (human) (UniProt P19827); test: SPR; initial SPR screening of fibronectin fragments with rHC1; metal ion-independent
T1 sequence: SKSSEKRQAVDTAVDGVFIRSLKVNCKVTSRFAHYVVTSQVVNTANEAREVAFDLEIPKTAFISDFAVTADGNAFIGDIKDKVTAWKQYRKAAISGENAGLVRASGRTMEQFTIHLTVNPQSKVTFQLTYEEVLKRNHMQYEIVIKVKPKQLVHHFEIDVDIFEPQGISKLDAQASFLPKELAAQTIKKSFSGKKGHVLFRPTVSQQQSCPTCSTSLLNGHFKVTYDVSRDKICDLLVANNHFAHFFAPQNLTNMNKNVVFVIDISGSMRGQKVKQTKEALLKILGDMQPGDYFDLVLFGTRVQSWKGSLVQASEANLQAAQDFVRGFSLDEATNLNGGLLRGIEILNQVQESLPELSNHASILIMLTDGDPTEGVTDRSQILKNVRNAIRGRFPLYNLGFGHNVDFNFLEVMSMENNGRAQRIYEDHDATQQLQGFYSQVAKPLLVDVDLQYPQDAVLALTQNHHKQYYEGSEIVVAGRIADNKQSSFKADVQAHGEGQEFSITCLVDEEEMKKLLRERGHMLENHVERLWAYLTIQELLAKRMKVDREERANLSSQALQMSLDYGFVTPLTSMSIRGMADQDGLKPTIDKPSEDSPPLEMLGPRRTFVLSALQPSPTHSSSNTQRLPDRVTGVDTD

[2] = target: T1, recombinant inter-α-inhibitor heavy chain 1 (rHC1), wild type (human); test: SPR; 1,500 RU rHC1 proteins immobilised on a C1 chip by amide cross-linking; ligand as analyte; HEPES-buffered saline pH 7.5, 0.05% Tween 20, 2 mM Mg2+, 2 mM Mn2+; 50 μl/min; multicycle kinetics, 1:1 Langmuir; both purified
[3] = target: T1, recombinant inter-α-inhibitor heavy chain 1 (rHC1), wild type (human); test: SPR; 1,500 RU rHC1 proteins immobilised on a C1 chip by amide cross-linking; ligand as analyte; HEPES-buffered saline pH 7.5, 0.05% Tween 20, 10 mM EDTA; 50 μl/min; multicycle kinetics, 1:1 Langmuir; both purified

| Substance | binding [2] | binding [3] | further results |
| --- | --- | --- | --- |
| H120 fragment of fibronectin (heparin-binding region) (domain or fragment) |  |  | binding [1]: binds |
| LTBP1 C-terminal region (CT), recombinant domain (domain or fragment) | no binding (tested: 0.156–10 nM) |  |  |
| LTBP1 EGF region, recombinant domain (domain or fragment) | no binding (tested: 0.156–10 nM) |  |  |
| TGFβ1, mature growth factor (ligand) |  | no binding (tested: 7.8–500 nM) |  |
| TGFβ3, mature growth factor (ligand) |  | no binding (tested: 7.8–500 nM) |  |
